This is an account of results in PubChem BioAssay AID328 (DTP/NCI, 2004).

For this assay, the system named is BDF1 mice, P388 leukemia ip, median survival T/C. Description: NCI In Vivo Anticancer Drug Screen. Data for tumor model P388 Leukemia (intraperitoneal) in B6D2F1 (BDF1) mice. The settings on record: T/C endpoint: median survival time, higher T/C = longer survival. In short, it runs like this: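 Mice carrying the transplantable tumour receive compound or vehicle. Survival is followed in each arm, and the treated measure is divided by the vehicle measure.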

Setting [1] is: dose: 400.0 mg/kg/injection, schedule: Q04DX003 (ip), vehicle: saline with Tween-80.
The mark [2] stands for this setting: dose: 50.0 mg/kg/injection, schedule: Q04DX003 (ip), vehicle: saline.
[3] abbreviates: dose: 25.0 mg/kg/injection, schedule: Q01DX009 (ip), vehicle: saline with Tween-80.
[4] abbreviates: dose: 50.0 mg/kg/injection, schedule: Q01DX009 (ip), vehicle: saline with Tween-80.
The mark [5] stands for this setting: dose: 200.0 mg/kg/injection, schedule: Q04DX003 (ip), vehicle: Klucel (hydroxypropylcellulose) (HPC).
The mark [6] stands for this setting: dose: 400.0 mg/kg/injection, schedule: Q04DX003 (ip), vehicle: Klucel (hydroxypropylcellulose) (HPC).
Setting [7] is: dose: 100.0 mg/kg/injection, schedule: Q01DX009 (ip), vehicle: saline with Tween-80.
Setting [8] is: dose: 200.0 mg/kg/injection, schedule: Q01DX009 (ip), vehicle: saline with Tween-80.

The list shows only some results of the screen, not a fair sample: it is rich in T/C values a quarter to a half above the control, in often repeated tests (any T/C) and in doses without a T/C. Further doses and runs are listed elsewhere. T/C gives the treated animals as a percentage of the vehicle group. Some entries give survivors of the animals treated and no T/C: the source holds a T/C of zero for them, seemingly a mark for toxic or unscored doses. Some doses without a T/C left all or most animals alive at the check, yet need not have been tolerated: the source hardly ever lists a survival T/C far under the control, and the zero likely stands for such cases as well. Counts of survivors are from the toxicity check (mostly the fifth day) where no day follows; animals may have died later. Schedule codes are those of the source, read here as Q, the interval in days (D) or hours (H), X, the number of doses. For survival time, this PubChem deposit counts one and a half times the control or more as active, and values a quarter to a half above the control carry no call in these data; other NCI protocols may use other cut-offs. Some T/C values are followed by the survivors on the day toxicity was checked, most often the fifth; where none is given, no animal had died by that day.

Take `Nc1ncnc2c1ncn2C1CC(CO)C(O)C1O` (stereo not drawn): the survivor count was 5 of 6 (dose: 25.0 mg/kg/injection, schedule: Q01DX009 (ip), vehicle: carboxymethylcellulose (CMC)) and 6 of 6 (dose: 50.0 mg/kg/injection, schedule: Q01DX009 (ip), vehicle: carboxymethylcellulose (CMC)).

As for `CCCC(O)C(NC(=O)CCl)C(=O)O` (stereo not drawn), the survivor count (dose: 500.0 mg/kg/injection, schedule: Q01DX005 (ip), vehicle: other) is listed as 1 of 6 and the survivor count (dose: 1000.0 mg/kg/injection, schedule: Q01DX005 (ip), vehicle: other) is on record as 0 of 6.

Take `C=CC(C)(C)C12CC3C(=O)N/C(=C\c4cnc[nH]4)C(=O)N3C1Nc1ccccc12` (stereo not drawn): the T/C (dose: 25.0 mg/kg/injection, schedule: Q01DX009 (ip), vehicle: Klucel (hydroxypropylcellulose) (HPC)) is 140 % of control.

As to `CCN(C(=O)c1ccc(C(=O)N(CC)c2ccccc2)cc1)c1ccccc1`, the survivor count under setting [1] is recorded as 6 of 6.

As for `COc1ccc2c(c1)c1c(C)c3cnccc3c(C)c1n2CCCN`, the survivor count was 6 of 6 (dose: 25.0 mg/kg/injection, schedule: Q01DX009 (ip), vehicle: saline); 2 of 6 under setting [2]; 2 of 6 (dose: 100.0 mg/kg/injection, schedule: Q04DX003 (ip), vehicle: saline).

Regarding `C/C(=C/c1c(C)[nH]c(=O)[nH]c1=O)C(=O)O`, the survivor count (dose: 400.0 mg/kg/injection, schedule: Q01DX009 (ip), vehicle: saline) is given as 5 of 6.

Take `ClC[P+](c1ccccc1)(c1ccccc1)c1ccccc1`: the survivor count runs as follows: (dose: 12.0 mg/kg/injection, schedule: Q01DX009 (ip), vehicle: saline) 4 of 6; (dose: 25.0 mg/kg/injection, schedule: Q04DX003 (ip), vehicle: saline) 1 of 6; under setting [2], 0 of 6.

With `COc1cc(NS(C)(=O)=O)ccc1Nc1c2ccc(Cl)cc2nc2c(OC)cccc12`, the T/C was 138 % of control [9 of 10 alive] (dose: 6.5 mg/kg/injection, schedule: Q01DX005 (iv), vehicle: water) and 135 % of control (dose: 13.0 mg/kg/injection, schedule: Q04DX003 (iv), vehicle: water). Besides, the survivor count reads like this: (dose: 13.0 mg/kg/injection, schedule: Q01DX005 (iv), vehicle: water) 8 of 10; under setting [3], 6 of 6; (dose: 26.0 mg/kg/injection, schedule: Q01DX005 (iv), vehicle: water) 3 of 10; under setting [4], 5 of 6.

With `CC1(C)N=C(N)N=C(N)N1c1cccc(Cl)c1`, the T/C (dose: 4.4 mg/kg/injection, schedule: Q04DX003 (ip), vehicle: saline) is 127 % of control; the T/C (dose: 6.6 mg/kg/injection, schedule: Q04DX003 (ip), vehicle: saline) was 127 % of control; the T/C (dose: 16.0 mg/kg/injection, schedule: Q04DX003 (ip), vehicle: saline) was 136 % of control; the T/C (dose: 24.75 mg/kg/injection, schedule: Q04DX003 (ip), vehicle: saline) was 140 % of control. Also, the survivor count is recorded as 4 of 6 (dose: 75.0 mg/kg/injection, schedule: Q04DX003 (ip), vehicle: saline) and 0 of 6 (dose: 150.0 mg/kg/injection, schedule: Q04DX003 (ip), vehicle: saline).

Take `CCOC(=O)c1ccc(C(=O)OCC)c(Cl)n1`: the survivor count is reported as 6 of 6 under setting [5] and 6 of 6 under setting [6].

As for `[N-]=[N+]=C1C=C(c2ccccc2)N=C1c1ccccc1`, the survivor count (dose: 200.0 mg/kg/injection, schedule: Q01DX009 (ip), vehicle: saline) is given as 4 of 6.

Regarding `COc1cc(C=Nc2ccc3c(c2)Cc2ccccc2-3)ccc1O`, the survivor count (dose: 100.0 mg/kg/injection, schedule: Q04DX003 (ip), vehicle: saline sonified) is 6 of 6.

As for `Cc1ccc(S(=O)(=O)O)cc1`, the survivor count (dose: 200.0 mg/kg/injection, schedule: Q04DX003 (ip), vehicle: saline) was 0 of 6.

With `Cc1ccc(C(=O)N=[N+]=[N-])o1`, the survivor count is given as 0 of 6 under setting [7] and 0 of 6 under setting [8].

As to `C1CCC2C[N-]CCC2C1.C1CCC2C[N-]CCC2C1.C1CCC2C[N-]CCC2C1.C1CCC2C[N-]CCC2C1.[Cl][Rh][Cl]` (stereo not drawn), the T/C (dose: 0.29 mg/kg/injection, schedule: Q01DX009 (ip), vehicle: saline) is 139 % of control; the T/C (dose: 0.44 mg/kg/injection, schedule: Q01DX009 (ip), vehicle: saline) was 133 % of control; the T/C (dose: 0.66 mg/kg/injection, schedule: Q01DX009 (ip), vehicle: saline) was 130 % of control; the T/C (dose: 1.0 mg/kg/injection, schedule: Q01DX009 (ip), vehicle: saline) was 132 % of control; the T/C (dose: 1.56 mg/kg/injection, schedule: Q01DX009 (ip), vehicle: saline with Tween-80) is 144 % of control; the T/C (dose: 1.78 mg/kg/injection, schedule: Q01DX009 (ip), vehicle: saline) was 136 % of control. The T/C is, setting by setting: (dose: 3.12 mg/kg/injection, schedule: Q04DX003 (ip), vehicle: saline with Tween-80) 140 % of control; (dose: 6.25 mg/kg/injection, schedule: Q04DX003 (ip), vehicle: saline with Tween-80) 125 % of control. In addition, the survivor count runs as follows: (dose: 3.12 mg/kg/injection, schedule: Q01DX009 (ip), vehicle: saline with Tween-80) 1 of 6; (dose: 6.25 mg/kg/injection, schedule: Q01DX009 (ip), vehicle: saline with Tween-80) 0 of 6; (dose: 8.0 mg/kg/injection, schedule: Q01DX009 (ip), vehicle: saline) 6 of 6; (dose: 12.5 mg/kg/injection, schedule: Q04DX003 (ip), vehicle: saline with Tween-80) 5 of 6; (dose: 16.0 mg/kg/injection, schedule: Q01DX009 (ip), vehicle: saline) 6 of 6; (dose: 32.0 mg/kg/injection, schedule: Q01DX009 (ip), vehicle: saline) 0 of 6.

In the case of `CSc1nc(N)cc(NC(=O)CCl)n1`, the survivor count is 2 of 6 (dose: 200.0 mg/kg/injection, schedule: Q01DX009 (ip), vehicle: Klucel (hydroxypropylcellulose) (HPC)); 6 of 6 under setting [8]; 5 of 6 under setting [5]; 2 of 6 under setting [6].

With `CCCCCCCC[N+](C)(C)CCSCC[N+](C)(C)CCCCCCCC`, the survivor count under setting [3] is recorded as 5 of 6 and the survivor count under setting [4] was 1 of 6.

For `COc1cc([N+](=O)[O-])ccc1N`, the survivor count (dose: 200.0 mg/kg/injection, schedule: Q04DX003 (ip), vehicle: saline with Tween-80) is on record as 6 of 6 and the survivor count under setting [1] is 6 of 6.

As to `O=Nc1ccc2ccccc2c1O`, the survivor count (dose: 200.0 mg/kg/injection, schedule: Q01DX001 (ip), vehicle: Klucel (hydroxypropylcellulose) (HPC)) is 0 of 6.

With `O=C(NNC1CCN(Cc2ccccc2)CC1)c1ccccc1`, for the setting “dose: 2.5 mg/kg/injection, schedule: Q04DX003 (ip), vehicle: saline with Tween-80”, the T/C was 129 % of control.

For the compound `O=C1N(Cl)C(=O)C(c2ccc(C(F)(F)F)cc2)(c2ccc(C(F)(F)F)cc2)N1Cl`, the survivor count by setting is: under setting [3], 0 of 6; under setting [4], 3 of 6; under setting [7], 0 of 6; under setting [8], 0 of 6; under setting [1], 6 of 6.

On to `COC(=O)c1ccc(CBr)cc1`, for which the survivor count under setting [7] was 5 of 6.

For the compound `CC(C)(C)NC(=S)Nc1ccc2c(c1)nc(-c1ccccc1)c1cc(NC(=S)NC(C)(C)C)ccc12`, the T/C under setting [1] is 125 % of control.
